± gives the standard deviation. Only a part is listed here, and it is no random draw. The uncertainty is large for many entries.
Tests used:
[1] = system: MIWI (PIWIL1) piRISC loaded with piRNA #1 (30 nt); experiment: pre-steady-state target cleavage rate (min^-1); higher = faster piRNA-guided slicing of the target; details: guide: piRNA #1 5'p-UGAGGUAGUAGGUUGUAUAGUAUCCAGAGG; auxiliary factor: 500 nM mouse GTSF1
Summary of the method: (§1)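 The method was Cleave-'n-Seq, in which uncleaved targets from a transcribed, DNA-blocked target RNA library were sequenced after exposure to active affinity-purified piRISC carrying one synthetic guide, with or without GTSF1 partner protein. Reactions contained 0.1 nM library, 1 nM piRISC and, where present, 500 nM GTSF1 in HEPES–potassium acetate buffer at 33 °C for 0–8 or 0–960 min. Reads were normalised to depth and to weakly complementary targets, three trials were pooled, and k3 was capped at 0.0001 min^-1. The pre-steady-state cleavage rate came from a burst-and-steady-state fit.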

[2] = system: EfPiwi piRISC loaded with piRNA #1 (26 nt); experiment: pre-steady-state target cleavage rate (min^-1); guide: piRNA #1 5'p-UGAGGUAGUAGGUUGUAUAGUAUCCA; MIWI and MILI are mouse PIWI proteins and EfPiwi is from a freshwater sponge; tags in brackets are library labels; higher = faster piRNA-guided slicing of the target; details: auxiliary factor: 500 nM Ephydatia muelleri Gtsf1
Summary of the method: as §1

| Sequence | pre-steady-state target cleavage rate [1] | pre-steady-state target cleavage rate [2] |
| --- | --- | --- |
| GGAGACCUAUGUAUACAACCUACAAGCUCA | 0.00024 ± 0.0075 |  |
| GGUCUGCAUACUAUACAACCUACUACCUCA | 1.71 ± 0.1 |  |
| GGAGACCUAUGAUAUGUUCCUCUACCUCA | 0.000177 ± 0.011 |  |
| CCUCUCGAUACUAUACAACCUACUACCUGA | 0.985 ± 0.087 |  |
| GGAGAGGUUACUAAACAACCUACUACCUCA | 1.21 ± 0.08 |  |
| GGAGACCUAUGAUAUGUUGCUACUUGCUCA | 0.000726 ± 0.007 |  |
| GGACUGGAUACUAUACAACUCUACUACCUCA | 0.000241 ± 0.036 |  |
| GGAGACGAUACUAUACAACCAUACUACCUCA | 0.00194 ± 0.0054 |  |
| CCUCUGGAUACUAAACAACCUACUACGUCA | 1.49 ± 0.087 |  |
| GCUCUCGAUACUAUUCAACCUACUACCUCA | 1.86 ± 0.11 |  |
| GGAGACGAUACUAUACAACCUCACUACCUCA | 0.00311 ± 0.0036 |  |
| GGAGACCUAUGAUAUGUACCUACUAACUCA | < 0.0001 |  |
| CCUCUGGAUACUAAACUACCUACUACCUCA | 1.24 ± 0.098 |  |
| GGAGACCUAUGAUAACAUCCUACAACCUCA | 0.000121 ± 0.015 |  |
| GGUCACCAUACUAUACAACCUACUACCUCA | 1.77 ± 0.11 |  |
| GCUCUCGAUACUAUACAACCUUCUACCUCA | 0.639 ± 0.034 |  |
| GGAGACCUAUCUAUACAACCAUACUACCUCA | 0.00119 ± 0.0053 |  |
| GGAGACCUAUGAUUACAACCUACUACGCUCA | 0.00159 ± 0.0058 |  |
| CCACUCGAUACUAUACAACCUACUACCUCA | 2.13 ± 0.14 |  |
| GGUCUGGAUACUAUACAACCUACUUCCACA | 0.00085 ± 0.0058 |  |
| CCUCUGGAUACCUAUACAACCUACUACCUCA | 1.18 ± 0.072 |  |
| GGAGACCUAUGAUAUGUUGCUACUAGGACA | 0.000188 ± 0.018 |  |
| GGAGACCUAUGAUAUGUUGGUACUACCCCA | 0.000285 ± 0.017 |  |
| GGACUGGAUACUAUCCAACCUACUACCUCA | 1.76 ± 0.11 |  |

| Sequence | pre-steady-state target cleavage rate [1] | pre-steady-state target cleavage rate [2] |
| --- | --- | --- |
| CCUCUGGAUACUAUACAACCUACUUCCACA | 0.337 ± 0.05 |  |
| CCUCUGGAUACUAUACUACCUACUACCACA | 1.68 ± 0.12 |  |
| CUUCUGGAUACUAUACAACCUACUACCUCA | 1.99 ± 0.11 |  |
| GGAGACCUAUGAUAUGUUGCUACUGACCUCA | 0.000103 ± 0.028 |  |
| GGAGACCUAACUAUACAACCGUACUACCUCA | 0.00078 ± 0.011 |  |
| GGAGACCUAUGAUAUCAACCUACUAACCUCA | 0.000291 ± 0.0062 |  |
| GGAGACCUAUGAUUGCAACCUACUACCUCA | 0.00106 ± 0.0036 |  |
| GGAGACCUAUGAUUACAACCUACUACCGCA | 0.00152 ± 0.0054 |  |
| CCUCUGGUUACUAUUCAACCUACUACCUCA | 2.15 ± 0.14 |  |
| GGUCUGAGAUACUAUACAACCUACUACCUCA | 1.89 ± 0.11 |  |
| GGAGACCUAUGAUAACAACCUACUACCGUCA | 0.000873 ± 0.0056 |  |
| GGACUGCUUACUAUACAACCUACUACCUCA | 1.54 ± 0.14 |  |
| CCUCUGGAUACUAUACAACCUACUACCUCC [g2:g30:cont:t1C] | 2.18 ± 0.14 |  |
| GGAGAGGAUACUAUACAUCCUACUUCCUCA | 0.0568 ± 0.0099 |  |
| GGAGACCUAUGUAUACAAGCAACUACCUCA | 0.000797 ± 0.006 |  |
| GGAGACCUAUGAUAUGUACCAUCUACCUCA | 0.000265 ± 0.012 |  |
| GGACUGGAAACUUUACAACCUACUACCUCA | 0.689 ± 0.076 |  |
| GGACUGGAUACUAUACACACCUACUACCUCA | 0.000323 ± 0.029 |  |
| GGAGACCUAUGAAUACAACCUAACUACCUCA | 0.000864 ± 0.0031 |  |
| GGAGACCUAUGAAUACAACCUACUACCUUCA | 0.00113 ± 0.0034 |  |
| GGACUCGAUUCUAUACAACCUACUACCUCA | 1.61 ± 0.14 |  |
| GGUCUGGAUACUAUAGAACCUAGUACCUCA | 0.000807 ± 0.0047 |  |
| GCUCUGGAUAGUAUACAACCUACUACCUGA | 0.324 ± 0.045 |  |
| CCUCAGGAUACUAUACAUCCUACUACCUCA | 2.03 ± 0.12 |  |

Full records from above:
GGAGACCUAUGAUAUGUUGCUACUUGCUCA reads pre-steady-state target cleavage rate [1]: 0.000726 ± 0.007
CCUCUGGAUACUAAACUACCUACUACCUCA reads pre-steady-state target cleavage rate [1]: 1.24 ± 0.098
GGAGACCUAUGAUUGCAACCUACUACCUCA reads pre-steady-state target cleavage rate [1]: 0.00106 ± 0.0036
GGAGACCUAUGAUAUGUACCUACUAACUCA reads pre-steady-state target cleavage rate [1]: < 0.0001

Going on with the list.

| Sequence | pre-steady-state target cleavage rate [1] | pre-steady-state target cleavage rate [2] |
| --- | --- | --- |
| GGAGUGAUACUAUACAACCUACUACCUCA | 1.77 ± 0.11 | 0.186 ± 0.069 |
| GGAGACCUAUGAUAACAACCUAAUACCUCA | 0.000394 ± 0.0068 | 0.000163 ± 0.019 |
| GGAGACCUAUGUAUACAACCUAGCUACCUCA | 0.00184 ± 0.0035 | 0.000716 ± 0.0084 |
| GGAGACCUAUGAAUACCACCUACUACCUCA | 0.00037 ± 0.0083 | 0.000325 ± 0.02 |
| GGAGACCUAUGAUUACAAGCUACAACCUCA | 0.000869 ± 0.0064 | 0.00111 ± 0.0072 |
| GGAGACCUAUGAUUUCAACCUACAACCUCA | 0.000174 ± 0.013 | 0.00014 ± 0.02 |
| GGAGACCUAUGAAUCACAACCUACUACCUCA | 0.00228 ± 0.0035 | 0.00389 ± 0.0034 |
| GGAGACCUAUGAUAUGUUGGUCACUACCUCA | 0.00121 ± 0.0044 | 0.000162 ± 0.021 |
| GGAGACCUAUGUAUAGCAACCUACUACCUCA | 0.00159 ± 0.0033 | 0.00125 ± 0.0065 |
| GGAGACCUAUGUAUACUACCUAGUACCUCA | 0.000419 ± 0.0053 | 0.000371 ± 0.01 |
| GGAGACCUAUGAUAUGUUGGUUCUUCCUCA | 0.000291 ± 0.013 | 0.000934 ± 0.0063 |
| GGAGACCUAUGAUAUGUAUCCUACUACCUCA | 0.000463 ± 0.0082 | 0.0011 ± 0.0056 |
| GGAGAGGGUACUAUACAACCUACUACCUCA | 1.17 ± 0.051 | 0.0162 ± 0.0072 |
| GGAGACCUAUCUAAACUACCUACUACCUCA | 0.000884 ± 0.0048 | 0.000977 ± 0.0056 |
| GGAGUGGAUACUAUACAACCUCUACCUCA | 0.00123 ± 0.0047 | 0.0673 ± 0.023 |
| GGAGACCUAUGAUUACAUCCUACUUCCUCA | 0.00119 ± 0.0057 | 0.00047 ± 0.0059 |
| GGAGACCUAUGUAUUCAACCUACUAGCUCA | 0.000232 ± 0.013 | 0.000226 ± 0.012 |
| GGAGACCUAUGUAUACAACGUACUACCUGA | 0.00174 ± 0.0029 | 0.00138 ± 0.0035 |
| GGAGACCUAUCUAUACAACCUACUUCCUGA | 0.0338 ± 0.01 | 0.00139 ± 0.0042 |
| GGAGACCUAUCAAUACAACCUACAACCUCA | 0.00209 ± 0.0042 | 0.00145 ± 0.0062 |
| GGAGACCUAACUAUACAGACCUACUACCUCA | 0.000107 ± 0.045 | 0.00153 ± 0.0049 |
| GGAGACCUAUGAUAUGUUGCUACUACCGUCA | 0.000695 ± 0.0069 | 0.000712 ± 0.007 |
| GGAGACCUAUGAUAUGUUACUACUACCUCA | 0.000352 ± 0.014 | 0.00138 ± 0.0037 |
| GGAGACCUUACAUAACAACCUACUACCUCA | 0.00221 ± 0.004 | 0.00133 ± 0.0064 |

Source: the supplement of paper PMC10338343
